System: S. aureus
Experiment: Evaluation of rapid antimicrobial activity in presence of serum (S. aureus)
Assay type: cell-based
Procedure: Evaluation of Rapid Antimicrobial Activity in Presence of Serum.
To determine the efficacy of the antimicrobial composition on the skin, which may be contaminated with blood or other proteinaceous fluids containing bacteria, the antimicrobial activity was evaluated in the presence of serum as follows. Briefly, 0.5 ml of 10^8 CFU of S. aureus/ml was added to 0.5 ml of bovine adult serum in a sterile culture tube and mixed. 0.5 ml of the test formulation was added to each tube and vortexed. After 15 seconds, it was further diluted 1:100 with drug inactivating media (LTSB) and 0.5 ml was plated on a TSA plate. The plates were incubated at 37° C. for 24 hours and the colony count per ml of culture was determined.

Compound: CC(C)(C)CC(C)(C)c1ccc(OCCOCC[N+](C)(C)Cc2ccccc2)cc1 [BZT, benzethonium chloride]
- whether farnesol shows synergy with or enhances the antimicrobial agent, in words (Example 6, Table 6, % w/w): shows synergy
- whether farnesol shows synergy with or enhances the antimicrobial agent, in words (Example 6, Table 7, molar proportions): synergistic antimicrobial activity
